These results are taken from PubChem BioAssay AID2685 (National Center for Advancing Translational Sciences (NCATS), 2010).

This experiment can be described thus: qHTS Assay for Lipid Storage Modulators in Drosophila S3 Cells.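 For cell number change: cells counted by Cell Tracker Red CMTPX staining in the red channel.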 The settings on record: BODIPY lipid droplet fluorescence, 18-24 h; for cell number change: measured here: cell count max response, cells fed with added oleic acid. The gist of the method: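 Drosophila S3 cells got compounds at several concentrations plus oleic acid (400 uM solution). Laser-scanning cytometry with 488 nm excitation read lipid droplets at 500-530 nm and cells at 575-640 nm. Percent activity was relative to 20 uM Triacsin C.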
(qHTS replaces the single test concentration by a dilution series.)

Setting [1] is: measured here: lipid fluorescence (Fed channel) AC50, cells fed with added oleic acid.
Where [2] appears, read: measured here: cell number channel AC50, cells fed with added oleic acid.

The list shows a part of the results. The main result of the screen is listed elsewhere. These columns were measured beside it and carry no call. Most of these compounds were active or inconclusive in the main read-out, so they are no random draw. Words in brackets tell the shape of the fitted curve; partial curves, single points and poor fits give uncertain potencies.

As for `Cn1cc(/C=N/NC(=O)c2ccccc2O)c2ccccc21`, the cell number change is -25.5%. In addition, the half-maximal activity concentration (AC50) (in general, the concentration at which the activity in the assay is half-maximal) under setting [1] is 29.1 µM [falling, single point]. `COC(=O)Cc1ccc(NC(=S)N2CCN(C)CC2)cc1`: the cell number change is -6.25%. Also, under setting [1], the AC50 is 29.1 µM [falling, single point]. As for `CCCCOC(=O)c1[nH]c(C)c(C(=O)OC)c1C`, the cell number change was -28.6%. In addition, the AC50 under setting [1] is 2.59 µM [falling, full curve, poor fit]. As for `COc1ccc(Br)cc1CNc1ccc2[nH]c(=O)[nH]c2c1`, the cell number change is -1.06%. Take `C=CCOc1ccc(C=Nc2cccc(Cl)c2)c(O)c1`: the cell number change is -0.446%. Further, under setting [1], the AC50 is 0.651 µM [falling, full curve, poor fit]. `CCOc1cccc(-c2cc(-c3n[nH]c(=S)n3CC)c3ccccc3n2)c1`: the cell number change was determined as 9.81%. The AC50 under setting [1] was 0.517 µM [falling, partial curve, poor fit]. Consider `COc1ccc(NC(=O)Cn2nnc(-c3ccccc3F)n2)cc1Cl`, for which the cell number change came out at 27.8%. Further, the AC50 under setting [2] was 2.59 µM [rising, full curve, poor fit]. In addition, the AC50 under setting [1] is 3.26 µM [rising, full curve].

In the case of `CCCc1cc(C(=O)Nc2ccc(C(=O)c3ccc(F)cc3)cc2)n(C)n1`, the cell number change was 11.8%. For the same compound, under setting [1], the AC50 is 35.5 µM [falling, single point]. Consider `CCCCSc1cc(C)nc2ncnn12`, for which the cell number change is -18.2%. In the case of `CC(C)c1ccc(NC(=O)C2CCCN(S(=O)(=O)c3cccnc3)C2)cc1` (stereo not given), the cell number change was found to be 13.3%. For the same compound, the AC50 under setting [1] was 6.51 µM [rising, single point]. On to `COCc1ccc(-c2c(-c3ccccc3OC)sc3cc4c(cc23)OCO4)cc1`, for which the cell number change came to 7.7%. Further, the AC50 under setting [1] was 0.146 µM [rising, single point]. Take `CCOC(=O)c1c(N)sc(C(O)(C(F)(F)F)C(F)(F)F)c1-c1ccc(OC)cc1OC`: the cell number change is -33.2%. The AC50 under setting [2] was 18.4 µM [falling, single point]. Besides, the AC50 under setting [1] is 29.1 µM [falling, single point]. `O=C(Nc1ccc(F)cc1)Nc1cnccn1`: under setting [2], the AC50 is 6.31 µM [falling, single point]. Regarding `COC(=O)c1cccc(S(=O)(=O)N2CCC(NC(=O)Nc3cccc(F)c3)CC2)c1`, the cell number change is -19.1%.

In the case of `COc1cc(NC(=O)C2CC(c3cccc(Br)c3)=NO2)cc(OC)c1OC` (stereo not given), the cell number change is 8.07%. The AC50 under setting [1] was 2.06 µM [rising, partial curve, poor fit]. For `CCOC(=O)CNC(=O)c1ccc(C#CC2(O)CCCCC2)cc1`, the AC50 by setting is: under setting [2], 6.51 µM [rising, single point]; under setting [1], 6.51 µM [rising, single point].

For `O=C(CCCNC(=O)c1ccc(Cl)cc1)OCc1cccc(Br)c1`, the cell number change was -18.1%. Regarding `CCC(C)C(NC(=O)c1ccccc1NC(=O)c1ccco1)C(=O)NNC(=O)c1ccc(OC)cc1` (stereo not given), the cell number change is -47.4%. Besides, under setting [2], the AC50 is 8.2 µM [falling, partial curve]. In addition, under setting [1], the AC50 is 32.6 µM [falling, single point]. Regarding `CC(C1CC1)N(C(=O)c1ccccc1[N+](=O)[O-])c1ccccc1` (stereo not given), the cell number change is 55.7%. In addition, the AC50 under setting [2] is 18.4 µM [rising, single point]. Under setting [1], the AC50 is 29.1 µM [rising, single point]. For the compound `COc1ccc(-n2c(SC3CCOC3=O)nc3ccccc3c2=O)cc1OC` (stereo not given), the cell number change was -7.96%. Take `O=C(c1ccc(Cl)s1)N1CCc2ccccc21`: the cell number change was -21.8%. Also, the AC50 under setting [1] is 6.51 µM [rising, single point].

As for `Cc1cc(C(=O)Nc2sccc2C#N)c2ccccc2n1`, the cell number change worked out at 7.56%.

Regarding `CCc1nc2ccc(C(=O)NCCCN3CCN(c4ccccc4F)CC3)cc2nc1CC`, the AC50 under setting [1] was 5.8 µM [rising, single point]. For the compound `C/C(=N/NC(=O)c1cccs1)c1c(C)[nH]n(-c2nc3ccccc3s2)c1=O`, the cell number change is 10.1%. Also, the AC50 under setting [1] is 16.4 µM [rising, single point]. `COc1cccc(CSc2nnc(CSc3nc4nc(C)cc(C)n4n3)s2)c1`: the AC50 under setting [1] is 6.51 µM [rising, single point]. As to `O=C(Cn1cnc2c(oc3ccccc32)c1=O)NCc1ccccc1`, the cell number change is -6.37%. For the same compound, the AC50 under setting [2] is 0.651 µM [falling, full curve]. Further, under setting [1], the AC50 was 0.651 µM [falling, partial curve, poor fit]. Consider `Cc1ccc(C)c(OCCC(=O)Nc2cccc(S(=O)(=O)N3CCCC3)c2)c1`, for which the AC50 under setting [1] was 0.651 µM [rising, single point].

On to `CCOc1ccc(N2C(=O)Nc3ccccc3C2(O)C(=O)N2CCN(c3ccccn3)CC2)cc1` (stereo not given), for which the AC50 under setting [2] is 0.103 µM [rising, single point] and the AC50 under setting [1] was 0.13 µM [rising, single point]. On to `Cc1ccc(S(=O)(=O)N2CCN(Cc3nc4ccccc4n3C)CC2)cc1`, for which the cell number change was -3.47%. Also, the AC50 under setting [1] was 32.6 µM [rising, single point]. `Cn1c(CSc2ncccn2)nnc1SCC(=O)N1CCCCC1`: the cell number change is -0.612%. The AC50 under setting [1] was 16.4 µM [rising, single point]. Take `CC(C)Nc1cc(C(C)(C)C)nc2c(-c3ccccc3)cnn12`: the cell number change is -2.57%. For the same compound, the AC50 under setting [1] was 0.116 µM [rising, full curve, poor fit].

With `COc1ccccc1N1CCN(C(=O)C(NS(=O)(=O)c2cccs2)c2ccccc2)CC1` (stereo not given), the cell number change was -8.05%. Further, the AC50 under setting [1] is 29.1 µM [falling, single point]. With `CCOc1ccc(N/C(C)=C\C(=O)c2ccc3c(c2)OCCO3)cc1`, the cell number change was -26.1%. Besides, the AC50 under setting [1] was 23.1 µM [falling, single point]. As for `Cc1nnc(SCCn2c(N3CCN(C)CC3)nc3c2c(=O)n(C)c(=O)n3C)s1`, the cell number change was -6.18%. The same measure, in the same setting: the figure for `CC1CC(C)CN(C(=O)C2CCN(C(=O)Nc3ccccc3)CC2)C1` (stereo not given) is -1.81%. As for `CCOC(=O)Nc1cccc(OCC(=O)Nc2ccccc2OC)c1`, the cell number change was -9.09%. Further, the AC50 under setting [1] is 29.1 µM [rising, single point]. Turning to `CS(=O)(=O)c1ccc2nc(NC(=O)c3ccc(N4CCCC4=O)cc3)sc2c1`, the cell number change came out at 0.396%. Moreover, under setting [1], the AC50 is 6.51 µM [rising, single point]. For `Cc1ccccc1Cn1c(NC2CCCC2)nc2c1c(=O)[nH]c(=O)n2C`, the cell number change amounted to 5.25%. In addition, under setting [1], the AC50 is 25.9 µM [rising, partial curve]. With `O=C(NC(=S)Nc1cccc2ncccc12)c1ccccc1`, the cell number change is 42.2%. Also, the AC50 under setting [2] was 23.1 µM [rising, single point]. Besides, the AC50 under setting [1] is 25.9 µM [rising, single point]. On to `COc1ccc(N(CC(=O)Nc2ccc(OC)c(OC)c2)S(=O)(=O)c2ccccc2)cc1Cl`, for which the cell number change is -54.9%. Besides, under setting [2], the AC50 is 8.2 µM [falling, partial curve]. In addition, the AC50 under setting [1] was 29.1 µM [falling, single point].
